Source: the supplement of paper PMC3334620
Whole data set: some 33,000 sequences, median “E-score (-0.5 to 0.5)” near -0.0014, cut for the highest 2% near 0.25. Some of the results follow.

Each sequence was assayed against T1, Cad1 (UniProt P24813) (assay: PBM E-score (8-mer binding enrichment) (E-score (-0.5 to 0.5)); higher = stronger / more preferred TF binding). Conditions: protein concentration: 100 nM; construct: GST-full length.
T1 sequence: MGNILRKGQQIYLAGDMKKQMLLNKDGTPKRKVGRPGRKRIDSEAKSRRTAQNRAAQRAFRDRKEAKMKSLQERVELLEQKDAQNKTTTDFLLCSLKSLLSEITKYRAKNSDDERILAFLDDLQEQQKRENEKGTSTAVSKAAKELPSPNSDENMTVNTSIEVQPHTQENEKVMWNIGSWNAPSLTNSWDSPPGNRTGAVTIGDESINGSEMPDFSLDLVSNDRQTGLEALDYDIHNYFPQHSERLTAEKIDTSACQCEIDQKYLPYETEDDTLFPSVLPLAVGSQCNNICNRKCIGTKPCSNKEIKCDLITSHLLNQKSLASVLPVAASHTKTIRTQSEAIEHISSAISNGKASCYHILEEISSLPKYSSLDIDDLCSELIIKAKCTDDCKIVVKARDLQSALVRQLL
Method: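 Universal 'all 10-mer' protein binding microarrays (Agilent AMADID 015681) probed with GST-tagged S. cerevisiae TFs (full-length or DBD) made by in vitro transcription/translation (PURExpress), about 100-200 nM. Bound TF was detected with fluorescent anti-GST. Each ungapped 8-mer (which stands for itself and its reverse complement) is scored by the PBM enrichment score (E-score), a modified Wilcoxon-Mann-Whitney statistic from -0.5 to +0.5, computed with the Universal PBM Analysis Suite. Scale: above 0.35 generally sequence-specific binding.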

Sequence | PBM E-score
GCTTAGAA | 0.19
CTGTAGCA | -0.141
AATCCATC | 0.0347
CAGGTTGA | -0.255
CCTCCATC | -0.237
CACATAGG | -0.0806
AAAATAAG | 0.208
ATTGCTTC | -0.0332
AAAACAAC | -0.13
ATCGCGGC | 0.178
CCATGCAG | -0.0439
AGGGCAAC | 0.0979
ACATTTCT | 0.142
CACTCAAG | -0.114
AACCGGCA | -0.00567
CGAACGCA | 0.236
GCGCCTCA | -0.0183
ATTTCCAG | 0.145
CCCATATC | 0.0133
CCCTTAAA | -0.182
CGCAACAA | 0.0963
GCTTCTAA | -0.0938
AGGTCCTC | -0.194
AGCGTGAA | -0.0191
TAGGCAGA | -0.0397

As a short view, part of the list above:
Sequence | PBM E-score
ACATTTCT | 0.142
CACTCAAG | -0.114
AACCGGCA | -0.00567
CGAACGCA | 0.236
GCGCCTCA | -0.0183
ATTTCCAG | 0.145
CCCATATC | 0.0133

(cont.)

Sequence | PBM E-score
GCTGGGCA | 0.0663
GAGTGATC | 0.0266
ATTTACGA | 0.113
ATCTGACC | 0.0388
AAGACCGC | -0.124
CATCATCG | 0.0611
CCACCTAG | -0.27
ACCAACTA | 0.154
TCCGGAGA | -0.0135
TTACACAA | 0.247
TCGCTGCA | -0.0819
CTGGATTA | 0.212
ATACTCGA | -0.0898
CGCGCGCG | 0.214
CTGTAGAC | -0.0298
ATGACTTA | 0.18
AACGTAGC | -0.053
GCTGCTCC | -0.193
CACGGAAG | -0.00842
GAGCGCGA | 0.236
ACATGGGC | 0.0187
ACCCTTCT | -0.0996
TCCGCTAA | 0.058
CGCCGTCA | -0.0993
CGCTGTAC | 0.0343

Sequence | PBM E-score
CGTATGGC | 0.14
GTCTTGGA | -0.123
CCGCGCCC | -0.183
AAGAGTAC | -0.0506
GGCCCGGA | -0.328
AATAGAGC | 0.0624
TCTCAAGA | -0.0659
CAAAATCA | 0.0621
CGAGGTCA | 0.0515
GCTCCCGA | -0.124
TAAATCTA | 0.114
AGGGAAGG | -0.335
AGCTGCGC | 0.0681
CCATTCTC | -0.114
ACTTGCGC | 0.0495
CGGTGTAG | -0.00445
ATAGTACA | 0.0832
AACGCAAT | 0.139
AAGCATCA | -0.0135
ACCACTTC | -0.138
GATGGTGC | -0.244
AGGTGCTA | -0.0384
ATGAACTA | 0.0699
ACGTCTTC | 0.00728
ACCTATGC | -0.0824

Sequence | PBM E-score
CGCGTTAG | 0.124
ATACGTGA | 0.072
CCCAGCCA | -0.12
CCTCGGTA | -0.118
ATGTCTAG | 0.109
CGGCATAG | -0.0547
TATTTTAA | 0.107
CCCATCAG | -0.191
CCCGACAG | -0.161
ATTACGAA | 0.327
ACCCCAGC | -0.00095
ACGCAAAC | 0.143
ATATGAAT | 0.12
AGGCCGGC | -0.166
CCCGTTAG | -0.187
TCTTAGCA | -0.0984
AGTAAGTG | 0.044
AGTGACCA | -0.0676
GGCGCGAA | 0.0675
GTGAACAC | 0.0122
ATATATTA | 0.368
CGCGCGAC | 0.18
AAAGGGGA | -0.325
TCCGAACA | 0.144
ACACTGTG | 0.134

Sequence | PBM E-score
ACACGCAC | -0.0647
ATCCGCCC | -0.199
GACACACA | 0.134
ACGCCACG | 0.0104
CCGCCAGA | 0.0805
CAGAAGGG | -0.208
CGTACCAC | 0.0587
GCTACCCC | -0.35
ACGGTCAC | -0.0969
AACACCTA | -0.0404
CACGCAAC | 0.169
CCCATGCC | -0.264
CAGCAGCC | -0.043
CGATACTC | 0.0376
CCGTGAGG | -0.186
AGACGTAC | -0.0325
AACCTCTC | -0.202
AACGGCCG | 0.153
CCCAGGCA | -0.193
GTAACTTA | 0.17
GGTTTCAC | 0.00803
GGCTGGGA | -0.0727
CATCCCGA | 0.0198
GCCTCTCA | -0.147
GTATAAAA | 0.18

Sequence | PBM E-score
ACACCTAT | -0.0643
TGTTAGAA | 0.065
CTGTTGGC | -0.202
AGTTCTAT | 0.0729
ATGCGGAG | -0.193
ACAACATG | 0.0955
ACGAGTGA | -0.106
TCGTTAGA | 0.0445
GTTCTCTA | 0.0943
CGCTTAGA | -0.0306
GAAGGTGC | -0.131
CATGCCAG | -0.0523
ACGATGTC | -0.0104
AGCGTTAT | 0.0656
CCAAGATA | 0.0014
AACTGGCC | -0.00047
AAACCCTT | 0.0351
GATATCTA | 0.00132
CATCGCCA | 0.118
AATCCTGG | -0.119
GATAGGTA | 0.165
GCTCGCGA | 0.3
ACATTTAG | -0.126
TCGATCGA | 0.27
CGCCGTGC | -0.0909

Part of the list above in another layout:
Sequence,PBM E-score
CTGTTGGC,-0.202
ACAACATG,0.0955
TCGATCGA,0.27

More results

Sequence | PBM E-score
CTTAGGAC | -0.0513
CCCACGAA | 0.115
TCCAGTAA | -0.00179
TACTAGCA | 0.0596
AGTGTTTG | 0.0711
AGCTACAC | 0.138
CGGCTGAC | 0.225
CTTCTCGC | -0.101
ATTTCGCC | 0.111
CGTTTCTA | -0.0391
ATCATGAG | 0.0863
GATACCTA | 0.16
CGGAGCCG | -0.184
CGGTTGCA | 0.0228
ACGAATCG | 0.147
GATACAGA | 0.0966
AGCGAACG | -0.117
GCCCCCAC | -0.447
CTCCTCTC | -0.347
ATCGAAGA | 0.16
ACGAGGAC | 0.0525
CGCACTAA | 0.155
